Taken from: PubChem BioAssay AID1224830 (NIAID, 2016)
The whole screen tested about 18,000 reagents; this is a part drawn at random. In the full data, about 2,900 (16%) were called active. 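Calls are made per well; low scores hint the gene aids the LPS response, high scores that it dampens it.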 Repeated entries: four replicate wells of each siRNA pool.

- Purpose: 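Regulators of TLR4 signalling towards TNF-alpha in macrophage-like cells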 (primary screen)
- Cell system: human THP-1 monocytic leukaemia cells, TNF dual-luciferase reporter clone, PMA-differentiated to macrophage-like cells
- Reagents: siRNA pool against human genes, 50 nM
- Timing: LPS for 4 h, given about 3 days after siRNA transfection
- Treatment: bacterial LPS (TLR4 ligand), 10 ng/ml
- Measured: 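Ratio of firefly to renilla light, scaled to the plate median and expressed as a robust z-score per replicate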
- Scale: TNF reporter robust z-score: higher = stronger TNF reporter response to LPS
- Hit rule: 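a well is active when its z-score exceeds 2.8 or falls below -1.5; control wells carry no call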

EXD3 (GeneID 54932) → TNF reporter robust z-score: 0.46; Call: inactive
EXD3 (GeneID 54932) → TNF reporter robust z-score: 1.7; Call: inactive
EXD3 (GeneID 54932) → TNF reporter robust z-score: -0.26; Call: inactive
EXD3 (GeneID 54932) → TNF reporter robust z-score: 0.27; Call: inactive
ATP4A (GeneID 495) → TNF reporter robust z-score: -1.44; Call: inactive
ATP4A (GeneID 495) → TNF reporter robust z-score: 0.07; Call: inactive
ATP4A (GeneID 495) → TNF reporter robust z-score: -0.34; Call: inactive
ATP4A (GeneID 495) → TNF reporter robust z-score: -0.64; Call: inactive
MTMR8 (GeneID 55613) → TNF reporter robust z-score: -0.29; Call: inactive
MTMR8 (GeneID 55613) → TNF reporter robust z-score: -0.9; Call: inactive
MTMR8 (GeneID 55613) → TNF reporter robust z-score: -0.76; Call: inactive
MTMR8 (GeneID 55613) → TNF reporter robust z-score: -0.01; Call: inactive
ASPNAT (GeneID 339983) → TNF reporter robust z-score: 0.15; Call: inactive
ASPNAT (GeneID 339983) → TNF reporter robust z-score: 0.31; Call: inactive
ASPNAT (GeneID 339983) → TNF reporter robust z-score: 0.01; Call: inactive
ASPNAT (GeneID 339983) → TNF reporter robust z-score: 0.14; Call: inactive
OR5AU1 (GeneID 390445) → TNF reporter robust z-score: -0.25; Call: inactive
OR5AU1 (GeneID 390445) → TNF reporter robust z-score: 0.25; Call: inactive
OR5AU1 (GeneID 390445) → TNF reporter robust z-score: -0.99; Call: inactive
OR5AU1 (GeneID 390445) → TNF reporter robust z-score: 1.4; Call: inactive
TMC7 (GeneID 79905) → TNF reporter robust z-score: -1.66; Call: active
TMC7 (GeneID 79905) → TNF reporter robust z-score: -0.92; Call: inactive
TMC7 (GeneID 79905) → TNF reporter robust z-score: -1.06; Call: inactive
TMC7 (GeneID 79905) → TNF reporter robust z-score: -1.09; Call: inactive
SAP30 (GeneID 8819) → TNF reporter robust z-score: -0.83; Call: inactive
SAP30 (GeneID 8819) → TNF reporter robust z-score: -0.16; Call: inactive
SAP30 (GeneID 8819) → TNF reporter robust z-score: -0.49; Call: inactive
SAP30 (GeneID 8819) → TNF reporter robust z-score: -0.52; Call: inactive
TBCA (GeneID 6902) → TNF reporter robust z-score: -1.61; Call: active
TBCA (GeneID 6902) → TNF reporter robust z-score: -0.77; Call: inactive
TBCA (GeneID 6902) → TNF reporter robust z-score: -0.83; Call: inactive
TBCA (GeneID 6902) → TNF reporter robust z-score: -1.25; Call: inactive

Reagents listed above called active (2):
TMC7 (GeneID 79905) → TNF reporter robust z-score: -1.66; Call: active
TBCA (GeneID 6902) → TNF reporter robust z-score: -1.61; Call: active
